Values joined by “and” are separate entries in the source; they are usually repeats but may differ in a detail not shown here. Identical values can stand only once. Screen size: about 390,000 compounds; about 4,000 (1%) were called active. Inconclusive means that the source gave no clear call. Such entries were picked first, then a sample of the others. Calls follow the shape of the dose curve; as a rule, active = well fitted inhibition curve with a large enough effect; inconclusive = small, poorly fitted or top-dose-only effect, or another doubt; inactive = no such curve, though single readings can be large or run the other way. Potencies of inconclusive entries are doubtful fits and often do not repeat.
biological target: DNA polymerase iota (Homo sapiens) (UniProt Q9UNA4); assay: qHTS for Inhibitors of Polymerase Iota; conditions: Pol iota fluorescent replication assay, 10 min; series mostly up to 115 µM
Method in brief: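 Fluorescent replication assay read twice, at 0 min and 10 min after adding 50 nM (final) substrate. Enzyme (10 nM) and compounds were first incubated 15 min at room temperature; enzyme-free buffer wells were negative controls.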
Potency is read from the fitted curve at half-maximal effect.

The chains behind the UniProt entries cited, without tags or fusion partners. Where a name states a change or a piece, a line headed by the entry shows the natural chain unless it says otherwise.
UniProt Q9UNA4: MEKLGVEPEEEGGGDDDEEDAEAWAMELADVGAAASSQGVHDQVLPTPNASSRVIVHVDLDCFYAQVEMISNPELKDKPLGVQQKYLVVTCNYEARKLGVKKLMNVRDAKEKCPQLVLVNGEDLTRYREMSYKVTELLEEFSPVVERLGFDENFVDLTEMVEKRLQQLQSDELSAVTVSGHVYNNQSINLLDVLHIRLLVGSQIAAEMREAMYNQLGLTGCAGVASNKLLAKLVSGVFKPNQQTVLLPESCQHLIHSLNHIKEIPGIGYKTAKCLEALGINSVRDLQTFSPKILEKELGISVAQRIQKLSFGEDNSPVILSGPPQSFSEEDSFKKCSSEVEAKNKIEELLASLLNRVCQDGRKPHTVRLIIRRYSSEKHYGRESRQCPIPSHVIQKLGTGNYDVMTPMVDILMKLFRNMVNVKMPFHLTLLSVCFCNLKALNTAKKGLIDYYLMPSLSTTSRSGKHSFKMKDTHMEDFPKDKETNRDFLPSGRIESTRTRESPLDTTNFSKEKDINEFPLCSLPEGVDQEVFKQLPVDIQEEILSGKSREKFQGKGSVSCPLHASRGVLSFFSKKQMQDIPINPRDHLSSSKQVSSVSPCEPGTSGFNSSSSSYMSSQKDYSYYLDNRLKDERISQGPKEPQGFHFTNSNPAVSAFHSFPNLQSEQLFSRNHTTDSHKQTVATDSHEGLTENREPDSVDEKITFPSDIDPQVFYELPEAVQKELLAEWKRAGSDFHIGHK

Row | SMILES | Potency
1 | Cc1ccc(CNC(=O)Cn2c(=O)n(-c3cccc(Cl)c3)c(=O)c3sc4ccccc4c32)cc1 | inactive
2 | C=CC(COCc1ccccc1)N(C(=O)OC(C)(C)C)S(=O)(=O)c1ccccc1Br (stereo not given) | inconclusive: 89.1 µM [inhibitor, single point]
3 | O=c1cc(-c2ccc(O)c(O)c2)oc2cc(O[C@@H]3O[C@H](CO)[C@@H](O)[C@H](O)[C@H]3O)cc(O)c12 | active: 6.31 µM
4 | CC1=CS(=O)(=O)CC1Sc1nc(C)n[nH]1 (stereo not given) | inconclusive: 44.7 µM [inhibitor, partial curve, poor fit]
5 | CN(CC(=O)Nc1ccc(Cl)cc1)CC(=O)Nc1cc(Cl)ccc1C#N | inconclusive: 79.4 µM [inhibitor, single point]
6 | CN(O)/C=c1/ccc2c(n1)C(=O)C=CC=2 | inconclusive: 7.94 µM [inhibitor, full curve, poor fit]
7 | Cc1cccc(-n2c(SCC(=O)c3ccccc3)nnc2-c2ccc(Br)cc2)c1 | inactive
8 | C#CCOCCOCCOCCNc1nc(N2CCN(C(=O)Cn3cc(CCO)nn3)CC2)nc(N2CCN(C(=O)Cn3cc(CCO)nn3)CC2)n1 | inconclusive: 17.8 µM [inhibitor, full curve, poor fit]
9 | CC1(C)CC2CC(C)(CN2C(=O)c2cccs2)C1 (stereo not given) | inconclusive: 39.8 µM [inhibitor, single point]
10 | CC1=C(C(=O)Nc2ccccc2)C(c2ccc(C)o2)n2c(s/c(=C\c3ccco3)c2=O)=N1 (stereo not given) | inconclusive: 14.1 µM [inhibitor, full curve, poor fit]
11 | CCN1C(=O)[C@H]2[C@H]3CN=C(SCC(=O)c4ccccc4)N3[C@@](CC)(C(=O)OC)[C@H]2C1=O | inconclusive: 39.8 µM [inhibitor, single point]
12 | O=C(CCN1C(=O)c2cccc3cccc(c23)C1=O)N1CCN(c2ccccc2F)CC1 | inconclusive: 12.6 µM [inhibitor, partial curve, poor fit]
13 | O=C1CN(C(=O)COC(=O)CCc2ccccc2O)c2ccccc2N1 | inactive
14 | O=C(CN1CCN(c2ccc(F)cc2)CC1)NC(=O)NCc1ccco1 | inconclusive: 0.708 µM [inhibitor, full curve, poor fit]
15 | CCn1c2ccccc2c2cnc(N=CN(C)C)c(C#N)c21 | inactive
16 | O=C(N/C(=C/c1ccco1)C(=O)N1CCOCC1)c1ccccc1Br | inactive
17 | O=C(Nc1cc(Cl)cc(Cl)c1)c1ccc(Cn2c(=O)[nH]c3ccsc3c2=O)cc1 | inactive
18 | O=C(Cn1nc(C(=O)O)c2ccccc2c1=O)Nc1cc(S(=O)(=O)N2CCOCC2)ccc1Cl | inconclusive: 79.4 µM [inhibitor, partial curve, poor fit]
19 | CC(C)CCn1c(SCC(=O)N2CC(=O)Nc3ccccc32)nc2scc(-c3cccs3)c2c1=O | inconclusive: 44.7 µM [inhibitor, partial curve, poor fit]
20 | COc1ccc2oc(-c3ccc(C)c(NC(=O)CSc4ccc(Cl)cc4)c3)nc2c1 | inconclusive: 25.1 µM [inhibitor, full curve, poor fit]

Row | SMILES | Potency
21 | CC(=O)N1CCc2c(sc3c2c(=O)n(CCc2ccccc2)c(=O)n3Cc2cccc(C)c2)C1 | inactive
22 | COc1ccccc1N1CC(C(=O)Nc2nnc(SCC(=O)NCC3CCCO3)s2)CC1=O (stereo not given) | inconclusive: 25.1 µM [inhibitor, full curve, poor fit]
23 | CC(Cc1c[nH]c2ccccc12)C(=O)NCc1ccco1 (stereo not given) | inconclusive: 56.2 µM [inhibitor, partial curve, poor fit]
24 | CCN(CC)c1ccc(NC(=O)CN2C(=O)c3cccnc3Sc3ccccc32)c(C)c1 | inactive
25 | CCOC(=O)N1CCN(C(=O)CNC2CCCCCCC2)CC1 | inconclusive: 89.1 µM [inhibitor, partial curve, poor fit]
26 | CC[C@H](C)C1NC(=O)[C@H](CC(=O)O)NC(=O)c2cc([N+](=O)[O-])cc(I)c2NCCC(C(N)=O)NC1=O (stereo not given in full) | inconclusive: 50.1 µM [inhibitor, partial curve, poor fit]
27 | CC(=O)OCc1c(C(F)(F)F)nn(C)c1Oc1ccccc1 | inconclusive: 56.2 µM [inhibitor, partial curve, poor fit]
28 | Cc1cccc(C#Cc2ccccc2)n1 | inactive and inconclusive: 79.4 µM [inhibitor, partial curve, poor fit] and inconclusive: 12.6 µM [inhibitor, partial curve, poor fit]
29 | COC(=O)c1ccccc1S(=O)(=O)N1Cc2cc([N+](=O)[O-])ccc2Oc2ccccc21 | inconclusive: 4.47 µM [inhibitor, full curve, poor fit]
30 | COc1ccc(C(=O)CSc2ccc3nnc(-c4cccnc4)n3n2)cc1 | inconclusive: 89.1 µM [inhibitor, single point]
31 | N#CC1=C(N)Oc2cc(O)c(Cl)cc2C1c1cccnc1 (stereo not given) | inconclusive: 79.4 µM [inhibitor, partial curve, poor fit]
32 | COc1ccc(-c2nc(NC(=O)C3CCN(c4nc5ccccc5o4)CC3)sc2C)cc1 | inconclusive: 79.4 µM [inhibitor, partial curve, poor fit]
33 | CCN(CC)CCOc1ccc2nc(N(C)C)sc2c1 | inconclusive: 25.1 µM [inhibitor, partial curve, poor fit]
34 | COc1ccc(NS(=O)(=O)c2ccc(N3CCCCC3)c(N)c2)cc1 | inconclusive: 10 µM [inhibitor, partial curve, poor fit]
35 | Nc1c(C(=O)c2ccccc2)sc2snc(SCC(=O)c3ccccc3)c12 | inconclusive: 2.51 µM [inhibitor, full curve, poor fit]
36 | O=C(Cn1c(=O)c2cccn2c2ccc(F)cc21)N1CCN(c2ccccc2)CC1 | inconclusive: 89.1 µM [inhibitor, single point]
37 | Cn1cnnc1Sc1ccc(/C=C/C(=O)c2ccc(O)cc2)cc1[N+](=O)[O-] | inconclusive: 8.91 µM [inhibitor, partial curve, poor fit]
38 | CCCCNC(=O)CSc1cc(=O)n(C)c2ccccc12 | inconclusive: 39.8 µM [inhibitor, single point]
39 | O=C(O)C1Cc2[nH]cnc2C(c2ccccc2O)N1 (stereo not given) | inconclusive: 89.1 µM [inhibitor, single point]
40 | CCCn1c(N)c(N2CCCCC2)c(=O)n(CC(=O)Nc2ccc(C(C)=O)cc2)c1=O | inactive

Row | SMILES | Potency
41 | O=C(C[C@H]1C[C@H](C(=O)N2CCCCC2)[C@@]2(CCc3ccccc3)c3[nH]c4cc(-c5ccco5)ccc4c3CCN2C1=O)NCc1ccco1 | inconclusive: 20 µM [inhibitor, single point]
42 | CN(c1ccccc1)S(=O)(=O)c1ccc(C(=O)Nc2nnc(C3=COCCO3)o2)cc1 | inconclusive: 22.4 µM [inhibitor, full curve, poor fit]
43 | COc1ccc2nc3cc(Cl)ccc3c(C#N)c2c1 | inactive
44 | O=C(Nc1cc(C(F)(F)F)cc(C(F)(F)F)c1)c1ccc(Cn2cc(C(F)(F)F)ccc2=O)cc1 | inconclusive: 15.8 µM [inhibitor, partial curve]
45 | CCCCc1ccc(NC(=O)c2ccc3c(c2)CCN3S(=O)(=O)c2ccccc2)cc1 | inconclusive: 89.1 µM [inhibitor, single point]
46 | CC(C)(C)n1ncc2c(=O)n(Cc3cccc(C(F)(F)F)c3Cl)cnc21 | inactive
47 | N#Cc1ccc(-c2cccnc2)nc1SCC(=O)c1ccccc1 | inconclusive: 56.2 µM [inhibitor, partial curve]
48 | CS(=O)(=O)N1CCN(c2ccccc2NC(=O)Nc2cccc(Cl)c2)CC1 | inconclusive: 39.8 µM [inhibitor, partial curve, poor fit]
49 | CCc1ccc(NS(=O)(=O)c2ccc3[nH]cc(C(=O)N4CCCCC4)c(=O)c3c2)cc1 | inconclusive: 89.1 µM [inhibitor, partial curve, poor fit]
50 | COc1ccc(-c2csc3nc(-c4ccccc4F)oc(=O)c23)cc1OC | inconclusive: 14.1 µM [inhibitor, full curve, poor fit]
51 | Cc1ccc(C(=O)NC(=S)Nc2ccc(N3CCOCC3)cc2)c(C)c1 | inconclusive: 100 µM [inhibitor, partial curve, poor fit]
52 | COc1ccc(C/C(O)=C(\C#N)c2nc3ccccc3s2)cc1 | inactive
53 | CN(C)Cc1c(O)ccc2oc(Cc3ccccc3)cc12 | inconclusive: 20 µM [inhibitor, partial curve, poor fit]
54 | Cc1ccc(C)c(N2CCN(CCCNC(=O)c3nnc(Cc4ccc(F)cc4Cl)o3)CC2)c1 | inactive
55 | CC1CCCN(C2=C(NS(=O)(=O)c3ccc(Br)cc3)C(=O)c3ccccc3C2=O)C1 (stereo not given) | inactive
56 | COc1ccc(Cl)cc1N1C(=O)[C@@H]2C(c3cccc(OC)c3OC)=NO[C@@H]2C1=O | inconclusive: 7.08 µM [inhibitor, single point]
57 | CC(=O)Nc1ccc(C(=O)/C=C/c2ccco2)cc1 | inconclusive: 20 µM [inhibitor, full curve, poor fit]
58 | Cc1ccc(C2C3=C(CCCC3=O)Nc3[nH]c(=S)[nH]c(=O)c32)cc1 (stereo not given) | inconclusive: 11.2 µM [inhibitor, partial curve, poor fit]
59 | O=C(O)c1ccc2ncsc2c1 | active: 3.98 µM
60 | O=C(NCc1ccccc1Cl)c1ccc(NC(=O)N2CCSc3ncccc32)cc1 | inconclusive: 89.1 µM [inhibitor, single point]
